Chains of the proteins cited; added tags and fusions are not shown. Lines headed by an entry give the natural chain unless they say otherwise; changes in a name come on top.
UniProt O94782: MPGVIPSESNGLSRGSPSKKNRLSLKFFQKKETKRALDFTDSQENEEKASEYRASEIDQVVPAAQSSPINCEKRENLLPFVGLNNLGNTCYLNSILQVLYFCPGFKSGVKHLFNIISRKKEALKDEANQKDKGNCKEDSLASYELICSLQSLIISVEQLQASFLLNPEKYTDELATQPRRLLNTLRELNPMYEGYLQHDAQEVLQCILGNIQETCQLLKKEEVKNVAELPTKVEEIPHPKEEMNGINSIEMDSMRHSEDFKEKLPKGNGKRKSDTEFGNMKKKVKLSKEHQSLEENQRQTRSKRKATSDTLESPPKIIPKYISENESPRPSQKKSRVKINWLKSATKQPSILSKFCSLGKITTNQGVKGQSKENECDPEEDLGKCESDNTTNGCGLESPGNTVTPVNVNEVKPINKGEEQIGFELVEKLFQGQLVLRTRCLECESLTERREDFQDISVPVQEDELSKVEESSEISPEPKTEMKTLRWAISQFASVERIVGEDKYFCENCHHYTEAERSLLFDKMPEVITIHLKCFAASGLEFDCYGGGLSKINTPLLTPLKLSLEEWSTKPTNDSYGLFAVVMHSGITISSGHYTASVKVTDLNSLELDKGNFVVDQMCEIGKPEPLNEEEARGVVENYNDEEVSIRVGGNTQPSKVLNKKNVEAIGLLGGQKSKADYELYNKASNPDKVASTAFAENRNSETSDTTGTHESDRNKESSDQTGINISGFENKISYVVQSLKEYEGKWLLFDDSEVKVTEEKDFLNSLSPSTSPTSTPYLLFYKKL

Among all 390,000 compounds or so, about 910 (0.23%) were called active. This list was built around the results that the source calls inconclusive (neither active nor inactive); the mix of calls is not that of the screen. Calls come from the whole dose curve; as a rule, active = well fitted inhibition curve with a large enough effect; inconclusive = small, poorly fitted or top-dose-only effect; inactive = no such curve, though single readings can be large or run the other way. Where the call is inconclusive, the potency comes from a doubtful curve fit.
What follows are compounds tested against Ubiquitin carboxyl-terminal hydrolase 1 (Homo sapiens) (UniProt O94782) (assay: Inhibitors of USP1/UAF1: Primary Screen). Details: recombinant USP1/UAF1, Ub-Rhodamine cleavage fluorescence; series mostly up to 57.1 µM.
Source text: Deubiquitinating enzymes (DUBs) are a class of enzymes that can cleave isopeptide bond formed between the C-terminal carboxylate of ubiquitin and a lysine side-chain amino group on the target protein. Among them, ubiquitin specific proteases (USPs) constitute the largest DUB family. Human USPs are emerging as promising targets for pharmacological intervention because of their connection to a number of human diseases, including prostate, colon and breast cancer (1, 2), pediatric acute lymphoblastic leukemia (3), and familial cylindromatosis (4). The advantage of inhibiting USPs lies in the potential specificity of therapeutic intervention that can lead to better efficacy and reduce nonspecific side effects. In a collaboration between the University of Delaware and the NIH Chemical Genomics Center, a high-throughput screen assay was developed to screen for USP1/UAF1 inhibitors. This miniaturized assay has a fluorescent read-out and is used to screen the NIH Molecular Libraries Small Molecule Repository (MLSMR) in order to identify a small molecule that inhibits USP1. NIH Chemical Genomics Center [NCGC] NIH Molecular Libraries Probe Centers Network [MLPCN] MLPCN Grant: DA030552 Assay Submitter (PI): Zhihao Zhuang, University of Delaware 1. Priolo, C., et al. (2006) The isopeptidase USP2a protects human prostate cancer from apoptosis. Cancer Res 66, 8625-8632 2. Popov, N., et al. (2007) The ubiquitin-specific protease USP28 is required for MYC stability. Nat Cell Biol 9, 765-774 3. De Pitta, C., et al. (2005) A leukemia-enriched cDNA microarray platform identifies new transcripts with relevance to the biology of pediatric acute lymphoblastic leukemia. Haematologica 90, 890-898 4. Kovalenko, A., et al. (2003) The tumour suppressor CYLD negatively regulates NF-kappaB signalling by deubiquitination. Nature 424, 801-805
3 microliters of reagents (buffer in columns 3 and 4 as negative control and 1nM USP1/UAF1 complex in columns 1, 2, and 5-48) are dispensed into Greiner black solid bottom 1536-well assay plates. Compounds are then transferred via Kalypsys pin tool equipped with 1536-pin array (10nl slotted pins, V&P Scientific, San Diego, CA). Following an incubation step of 15 min at room temperature, 1ul of Ub-Rho substrate (150nM final concentration) is added to initiate the reaction. The plates are immediately centrifuged at 1000 rpm for 15 seconds, and subsequently transferred to a ViewLux high-throughput CCD imager (PerkinElmer) wherein kinetic measurements of fluorescence are acquired using 480 nm excitation/540 nm emission filter set (6 reads every 60 seconds, see Table 1). All reagents are diluted in an assay buffer consisting of 50mM HEPES (pH 7.8), 0.5mM EDTA, 0.1 mg/ml BSA, 1mM TCEP, and 0.01% Tween-20.
In the case of `CC(=O)N=c1sc(S(N)(=O)=O)nn1C`, the Potency was inconclusive: 50.1 µM [inhibitor, partial curve, poor fit]. `Cc1cccc(C)c1NC(=O)CN(C)S(=O)(=O)c1ccc2[nH]c3c(c2c1)CCCC3` was tested, and the Potency was inconclusive: 4.47 µM [inhibitor, single point]. With `CC(C)COc1ccc(C(=O)N2CCC(c3nc4ccccc4s3)CC2)cc1` the Potency was inconclusive: 0.631 µM [inhibitor, full curve, poor fit]. For `Cc1ccc(CNC(=O)CNC(=O)c2ccc(C(C)(C)C)cc2)n1C`, the Potency was inconclusive: 50.1 µM [inhibitor, partial curve, poor fit]. `COc1ccc(N2CCN(c3nc4ccccc4n4c(C)nnc34)CC2)cc1` was tested, and the Potency was inconclusive: 5.62 µM [inhibitor, partial curve, poor fit]. In the case of `S=C(NCCSCc1ccc(Cl)cc1Cl)Nc1ccccc1`, the Potency was “inactive”. In the case of `CCN(CC)CCC(=O)N1C/C(=C/c2ccccc2)C(=O)/C(=C\c2ccccc2)C1`, the Potency was inconclusive: 44.7 µM [inhibitor, partial curve]. For `CN1CCN(C(=O)C2=C[C@@H](C3CCCCC3)C[C@@H](OCCCCO)O2)CC1`, the Potency was inconclusive: 79.4 µM [inhibitor, partial curve]. With `CC(OC(=O)/C(C#N)=C/c1ccco1)C(=O)N(C)c1ccccc1` (centres undefined) the Potency was inconclusive: 50.1 µM [inhibitor, partial curve, poor fit]. `C=CCNC(=O)c1onc(CSc2ccc(Cl)cc2)c1C(=O)O` was tested, and the Potency was inconclusive: 2.82 µM [inhibitor, full curve, poor fit]. `Cc1cc(CNC(=O)[C@H]2C[C@@H]2[C@H](NP(=O)(c2ccccc2)c2ccccc2)c2ccccc2)nn1C` was tested, and the Potency was inconclusive: 44.7 µM [inhibitor, partial curve, poor fit]. For `O=S(=O)(c1ccccc1Cl)N1CCC(O)(c2cccnc2)CC1`, the Potency was inconclusive: 4.47 µM [inhibitor, single point]. For `CCCCC(=O)Nc1ccc(C(=O)OCc2cc(=O)n3ccsc3n2)cc1`, the Potency was inconclusive: 2 µM [inhibitor, partial curve]. For `CCN(C(=O)c1cc(S(=O)(=O)N2CCCC2)cn1C)c1ccc(OC)cc1`, the Potency was inconclusive: 28.2 µM [inhibitor, single point]. For `O=C(CSc1nc2ccccc2c(=O)n1-c1ccccc1)NCc1ccc2c(c1)OCO2`, the Potency was inconclusive: 1.58 µM [inhibitor, full curve]. `O=C(Cc1c[nH]c2ccccc12)N/N=C/c1ccccc1O` was tested, and the Potency was “inactive”. In the case of `CCOC(=O)N1CCC(NC(=O)c2oc3c(c2C)-c2[nH]ncc2CC3)CC1`, the Potency was “inactive”. With `CC(C)CN1C=C2C(=O)C(C)(OC(=O)CCc3ccccc3)C(=O)C=C2C=C1c1ccc(C#N)cc1` (centres undefined) the Potency was inconclusive: 28.2 µM [inhibitor, partial curve]. With `COc1ccc([C@H]2C[C@H](O)[C@@H](n3cc(-c4ccc(F)cc4)nn3)CN2CC2CCCCC2)cc1` the Potency was inconclusive: 0.282 µM [inhibitor, full curve, poor fit]. For `Cc1ccc(N2CCN(c3nc4ccccc4c4nnc(C)n34)CC2)c(C)c1`, the Potency was inconclusive: 10 µM [inhibitor, full curve]. In the case of `Cc1ccc(NC(=O)Cn2ncn3c(cc4ccccc43)c2=O)cc1C`, the Potency was inconclusive: 0.794 µM [inhibitor, full curve, poor fit]. In the case of `Cc1ccc(CNC(=O)c2cccc(Nc3nc4ccccc4n4nnnc34)c2)cc1`, the Potency was inconclusive: 35.5 µM [inhibitor, single point]. In the case of `O=C(O)c1cccc(NC(=S)N/N=C/c2ccccc2OCc2cccc(Br)c2)c1`, the Potency was inconclusive: 44.7 µM [inhibitor, partial curve, poor fit]. For `CC#CCCCC(=O)Nc1ccccc1C(=O)O`, the Potency was inconclusive: 5.01 µM [inhibitor, partial curve]. With `CN1CCn2cnc(C(=O)N[C@@H](Cc3ccccc3)C(=O)OC(C)(C)C)c2C1=O` the Potency was inconclusive: 0.251 µM [inhibitor, full curve, poor fit]. In the case of `COC(=O)c1cccn(CC(=O)c2ccc(Cl)cc2Cl)c1=O`, the Potency was inconclusive: 3.16 µM [inhibitor, full curve, poor fit]. In the case of `c1ccc(CCc2cn(C[C@H]3CC[C@@H]([C@@H]4CC[C@H](Cn5cc(CCc6ccccc6)nn5)O4)O3)nn2)cc1`, the Potency was “inactive”. For `COCCn1c(N)c(C(=O)NCC2CCCO2)c2nc3ccccc3nc21` (centres undefined), the Potency was active: 25.1 µM. In the case of `c1ccc(-c2c(-c3ccccc3)n(Cc3ccco3)c3ncnc(NCCCn4ccnc4)c23)cc1`, the Potency was inconclusive: 20 µM [inhibitor, partial curve]. In the case of `CC(Sc1nc(O)c(-c2ccccc2)c(=O)[nH]1)C(=O)Nc1ccc(Cl)cc1` (centres undefined), the Potency was inconclusive: 35.5 µM [inhibitor, partial curve, poor fit]. With `CC1CCN(S(=O)(=O)c2ccc3[nH]cc(C(=O)NCc4ccc(F)cc4)c(=O)c3c2)CC1` the Potency was inconclusive: 2.82 µM [inhibitor, full curve]. `COc1ccc2c(c1OC)C(=O)N1N=C(c3ccc(F)cc3)CC21` (centres undefined) was tested, and the Potency was “inactive”. In the case of `Cc1nn(-c2ccccc2)c(NC(=O)c2cccs2)c(-c2ccccc2Cl)c1=O`, the Potency was inconclusive: 0.282 µM [inhibitor, full curve, poor fit]. In the case of `O=C(Nc1ccc(N2CCCC2)c(Cl)c1)c1cccs1`, the Potency was “inactive”. `CCc1nc2ccc(C(=O)NCCc3ccc(OC)cc3OC)cc2nc1CC` was tested, and the Potency was inconclusive: 44.7 µM [inhibitor, partial curve, poor fit]. `CC1Cc2nc(SCC(=O)Nc3ccc4c(c3)OCCO4)n(C)c(=O)c2S1` (centres undefined) was tested, and the Potency was “inactive”. With `CNCC(=O)N1CCN(c2ncc(C(F)(F)F)cc2Cl)CC1` the Potency was inconclusive: 1 µM [inhibitor, full curve, poor fit]. With `CC1=C(C(=O)Nc2cccc(C(F)(F)F)c2)C2(CCCCCC2)OC1=O` the Potency was “inactive”. For `O=C(O)CN1C(=O)/C(=C\c2cccc(OCc3ccc(F)cc3)c2)SC1=S`, the Potency was inconclusive: 31.6 µM [inhibitor, partial curve].

Reference: PubChem BioAssay AID743255 (National Center for Advancing Translational Sciences (NCATS), 2014)
Note: nearly all actives have a fitted effect of over 60% in size.
Potency is the fitted concentration of half-maximal effect.
